The supplement of paper PMC9233669
Variants at the background level are over-represented here.

Assays:
biotinyl-Trp-oxazolone = test: self-aminoacylation, catalytic enhancement (BWO) (fold over background); higher = more active; k-Seq, kA / k0A0; sequences stand for … in GGGAAUGGAUCCACAUCUACGAAUUC…UUCACUGCAGACUUGACGAAGCUG
Summary of the method: (§1)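 Catalytic enhancement equals the median kA over the uncatalyzed rate, the latter read from the low-activity peak of a bimodal Gaussian fit. Values of kA came from fitting each sequence's fraction reacted to a pseudo-first-order model, with 1000 bootstraps. Reacted RNA was captured with streptavidin and quantified by triplicate qPCR and Illumina sequencing after 90 minutes at room temperature with 2–1250 μM biotinyl-aminoacyl-oxazolone and 0.43 μM mutagenized RNA pools bearing a 21-nt variable region.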

biotinyl-Leu-oxazolone = test: self-aminoacylation, catalytic enhancement (BLO) (fold over background); higher = more active; k-Seq, kA / k0A0; sequences stand for … in GGGAAUGGAUCCACAUCUACGAAUUC…UUCACUGCAGACUUGACGAAGCUG
Summary of the method: as §1

biotinyl-Val-oxazolone = test: self-aminoacylation, catalytic enhancement (BVO) (fold over background); higher = more active; k-Seq, kA / k0A0; sequences stand for … in GGGAAUGGAUCCACAUCUACGAAUUC…UUCACUGCAGACUUGACGAAGCUG
Summary of the method: as §1

biotinyl-Ile-oxazolone = test: self-aminoacylation, catalytic enhancement (BIO) (fold over background); higher = more active; k-Seq, kA / k0A0; sequences stand for … in GGGAAUGGAUCCACAUCUACGAAUUC…UUCACUGCAGACUUGACGAAGCUG
Summary of the method: as §1

biotinyl-Met-oxazolone = test: self-aminoacylation, catalytic enhancement (BMO) (fold over background); higher = more active; k-Seq, kA / k0A0; sequences stand for … in GGGAAUGGAUCCACAUCUACGAAUUC…UUCACUGCAGACUUGACGAAGCUG
Summary of the method: as §1

Sequence | self-aminoacylation (biotinyl-Trp-oxazolone) | self-aminoacylation (biotinyl-Leu-oxazolone) | self-aminoacylation (biotinyl-Val-oxazolone) | self-aminoacylation (biotinyl-Ile-oxazolone) | self-aminoacylation (biotinyl-Met-oxazolone)
UUUACCCUGGUCGUCGAGUGA [Fam2.1 aminoacylation ribozyme variant] | 1.24 | 0.835 | 0.984 | 1.04 | 1.16
AUUACCCUGGCCAUCGAAUGA [Fam2.1 aminoacylation ribozyme variant] | 0.331 | 1.4 | 1.31 | 1 | 0.928
AAGCUUGCUAAUAGUUGCAAG [Fam3.1 aminoacylation ribozyme variant] | 1.72 | 1.71 | 1.21 | 1.65 | 1.16
AUUACCCUGGUCAUGGAGUGU [Fam2.1 aminoacylation ribozyme variant] | 2.57 | 2.73 | 1.98 | 1.72 | 2.46
GAGUUUGCUAAUAGUCGCACG [Fam3.1 aminoacylation ribozyme variant] | 1.25 | 1.04 | 1.63 | 1.53 | 1.66
AAGUUUGUUAAAAGUCGCAAG [Fam3.1 aminoacylation ribozyme variant] | 1.78 | 1.48 | 1.31 | 1.76 | 1.32
CUACCUCAAACAUUCGGUCUG [Fam1A.1 aminoacylation ribozyme variant] | 3.08 | 2.13 | 1.87 | 1.66 | 1.81
CAAAACUUCAAGCAAUCGGUC [Fam1B.1 aminoacylation ribozyme variant] | 10.6 | 1.37 | 1.17 | 1.16 | 1.12
ACUCACCUAGGUCAUAGGGUG [Fam2.2 aminoacylation ribozyme variant] | 1.58 | 1.39 | 1.36 | 1.31 | 1.57
AUUACCCUGGUCAUCGUGUGU [Fam2.1 aminoacylation ribozyme variant] | 0.854 | 1.22 | 1.17 | 0.802 | 1.2
AUUGCCGUGGUCAUCGAGUGA [Fam2.1 aminoacylation ribozyme variant] | 5.71 | 6.18 | 3.45 | 2.89 | 4.92
CGACUUCAGACAAUCGGUCUG [Fam1A.1 aminoacylation ribozyme variant] | 1.04 | 1.85 | 1.37 | 1.2 | 1.19
AAAUUUGCUAAUAGUCGGAAG [Fam3.1 aminoacylation ribozyme variant] | 1.84 | 1.13 | 1.12 | 0.986 | 0.851
AUGUUUGCUCAUAGUCGCAAG [Fam3.1 aminoacylation ribozyme variant] | 1.73 | 1.32 | 1.4 | 1.5 | 1.48
AUUACCCUGGUCGUCGAGGGA [Fam2.1 aminoacylation ribozyme variant] | 1.51 | 0.979 | 1.64 | 1.26 | 1.03
AUUAGCCUGGUCAUCGAGUGC [Fam2.1 aminoacylation ribozyme variant] | 1.19 | 1.76 | 1.33 | 1.23 | 1.54
AUUUACCAAGGUCAUCGGGUG [Fam2.2 aminoacylation ribozyme variant] | 7.11 | 9.69 | 4.6 | 4.61 | 7.36
CCACACUUCAAGAAUUCGGUC [Fam1B.1 aminoacylation ribozyme variant] | 1.78 | 1.88 | 1.77 | 1.93 | 1.84
AUUACCCUGGUCAACGUGUGA [Fam2.1 aminoacylation ribozyme variant] | 1.29 | 1.37 | 1.35 | 1.12 | 1.33

Sequence | self-aminoacylation (biotinyl-Trp-oxazolone) | self-aminoacylation (biotinyl-Leu-oxazolone) | self-aminoacylation (biotinyl-Val-oxazolone) | self-aminoacylation (biotinyl-Ile-oxazolone) | self-aminoacylation (biotinyl-Met-oxazolone)
CCAUACUUCCAGCAAUCGGUC [Fam1B.1 aminoacylation ribozyme variant] | 0.815 | 1.1 | 1.39 | 1.45 | 1.06
AUUCACCCAGGUCGUCGGGUG [Fam2.2 aminoacylation ribozyme variant] | 1.93 | 2.84 | 1.8 | 1.9 | 1.91
CGAAACUUCAAGCAAUCGGUC [Fam1B.1 aminoacylation ribozyme variant] | 5.43 | 0.993 | 1.18 | 1.17 | 0.901
AAGUGUGCUCAUAGUCGCAAG [Fam3.1 aminoacylation ribozyme variant] | 2.34 | 1.51 | 1.53 | 1.54 | 1.59
AAGUUUGCUAACAGUCGCAGG [Fam3.1 aminoacylation ribozyme variant] | 1.41 | 1.2 | 1.28 | 1.21 | 1.03
CUACGUCAAACAAUUGGUCUG [Fam1A.1 aminoacylation ribozyme variant] | 0.921 | 0.931 | 1.05 | 1.06 | 1.11
AUUCACCUAGGUCUUCGGGAG [Fam2.2 aminoacylation ribozyme variant] | 1.11 | 1.86 | 1.76 | 1.59 | 1.17
AAGUUUUCUAAUAGUCGCUAG [Fam3.1 aminoacylation ribozyme variant] | 1.61 | 1.39 | 1.45 | 1.44 | 1.41
UAGUUUGCUAAUAGUCGCAUG [Fam3.1 aminoacylation ribozyme variant] | 1.11 | 1.32 | 1.19 | 1.58 | 1.61
AUUCACCUAGGUCUUCGUGUG [Fam2.2 aminoacylation ribozyme variant] | 0.898 | 1.43 | 1.1 | 1.05 | 1.21
CUACAUCAAACAAGCGGUCUG [Fam1A.1 aminoacylation ribozyme variant] | 1.27 | 1.12 | 0.953 | 1.28 | 1.01
AAGAUUGCAAAUAGUCGCAAG [Fam3.1 aminoacylation ribozyme variant] | 2.48 | 1.58 | 1.29 | 1.43 | 1.27
AAGUUUGAUAAUAGUCGCAAU [Fam3.1 aminoacylation ribozyme variant] | 1.18 | 1.02 | 1.07 | 1.19 | 1.03
AAGGUUGCUACUAGUCGCAAG [Fam3.1 aminoacylation ribozyme variant] | 0.87 | 1.46 | 1.26 | 1.53 | 1.08
CUACUUCAGACAUUCGGUCUG [Fam1A.1 aminoacylation ribozyme variant] | 1.96 | 1.4 | 1.42 | 1.36 | 1.78
CUACUUUCAACAAUCGGUCUG [Fam1A.1 aminoacylation ribozyme variant] | 10.3 | 1.09 | 1.06 | 0.99 | 0.895
AAGUUUCCUACUAGUCGCAAG [Fam3.1 aminoacylation ribozyme variant] | 1.49 | 1.64 | 1.57 | 1.63 | 1.93
CCGCACUUCAAGUAAUCGGUC [Fam1B.1 aminoacylation ribozyme variant] | 14.5 | 1.54 | 1.37 | 1.3 | 1.4
AAGUCUGCUGAUAGUCGCAAG [Fam3.1 aminoacylation ribozyme variant] | 0.941 | 1.38 | 0.949 | 0.758 | 0.577

Sequence | self-aminoacylation (biotinyl-Trp-oxazolone) | self-aminoacylation (biotinyl-Leu-oxazolone) | self-aminoacylation (biotinyl-Val-oxazolone) | self-aminoacylation (biotinyl-Ile-oxazolone) | self-aminoacylation (biotinyl-Met-oxazolone)
AUUAGCUUGGUCAUCGAGUGA [Fam2.1 aminoacylation ribozyme variant] | 1.39 | 1.97 | 1.61 | 1.99 | 1.76
AUUCACCGAGGCCAUCGGGUG [Fam2.2 aminoacylation ribozyme variant] | 4.78 | 6.39 | 4.36 | 3.16 | 5.31
AUUGACCUAUGUCAUCGGGUG [Fam2.2 aminoacylation ribozyme variant] | 5.17 | 7.74 | 3.64 | 3.81 | 5.68
AAGUUUCCUAAUGGUCGCAAG [Fam3.1 aminoacylation ribozyme variant] | 1.3 | 1.77 | 1.31 | 1.24 | 1.41
AUUACCCUGGUCGUCGUGUGA [Fam2.1 aminoacylation ribozyme variant] | 1.87 | 1.73 | 1.18 | 1.02 | 1.54
AUUACCCUGGUUAUCGAGGGA [Fam2.1 aminoacylation ribozyme variant] | 1.79 | 0.955 | 1.16 | 1.55 | 1.4
AAGUUUGCUAAUAGUAACAAG [Fam3.1 aminoacylation ribozyme variant] | 1.41 | 1.12 | 1.1 | 1.19 | 1.52
AAGUUUAAUAAUAGUCGCAAG [Fam3.1 aminoacylation ribozyme variant] | 1.81 | 1.67 | 1.43 | 1.44 | 1.58
CAACUGCAAACAAUCGGUCUG [Fam1A.1 aminoacylation ribozyme variant] | 1.26 | 1.01 | 1.23 | 1.21 | 1.09
ACUACCCUGGUCAUCUAGUGA [Fam2.1 aminoacylation ribozyme variant] | 7.62 | 7.72 | 3.97 | 3.86 | 7.5
AUUACCGUGGCCAUCGAGUGA [Fam2.1 aminoacylation ribozyme variant] | 8.11 | 5.84 | 3.89 | 3.2 | 4.71
AAGAUUGCUAAUAGUCACAAG [Fam3.1 aminoacylation ribozyme variant] | 1.69 | 1.02 | 1.12 | 1.17 | 1.31
AAGUUUACUAAUAGUCGCACG [Fam3.1 aminoacylation ribozyme variant] | 1.71 | 1.04 | 1.18 | 1.3 | 0.986
AGGUCUGCUAAUAGUCGCAAG [Fam3.1 aminoacylation ribozyme variant] | 9.95 | 1.08 | 1.17 | 1.36 | 2.08
CAACUUCAAACAAUCGAUCUG [Fam1A.1 aminoacylation ribozyme variant] | 1.24 | 0.64 | 0.759 | 0.806 | 0.567
AUUCACCUAGCUCGUCGGGUG [Fam2.2 aminoacylation ribozyme variant] | 1.18 | 1.19 | 1.53 | 1.21 | 1.37
AUUACCCUGAUCAUCGAGGGA [Fam2.1 aminoacylation ribozyme variant] | 2.33 | 1.87 | 1.21 | 1.09 | 1.02
AGGUUUGUUAAUAGUCGCAAG [Fam3.1 aminoacylation ribozyme variant] | 1.91 | 1.81 | 1.87 | 1.86 | 1.86
